Source: PubChem BioAssay
Some of the results follow. Measured potencies and affinities stand elsewhere. Entries without a call are filed as inconclusive in the source.

Tests used:
[1] = Polyglutamine toxicity reduction dose response, whole organism Drosophila SCA1 model (AID 1595); conditions: at 1 µM, stronger effect = higher value
PubChem AID 1597 = conditions: Drosophila SCA1 polyglutamine model, at 1 µM, stronger effect = higher value

| Structure (SMILES) | suppression of toxicity [1] | suppression of toxicity (PubChem AID 1597) |
| --- | --- | --- |
| Nc1ccn(C2O[C@H](CO)[C@@H](O)[C@@H]2O)c(=O)n1 (stereo not given in full) | 1.43 | 6.43 |
| CCCCCCCCCCCCC[N+](C)(C)Cc1ccccc1 | 4.29 | 4.29 |
| N[C@@H](CCC(=O)N[C@@H](CS)C(=O)NCC(=O)O)C(=O)O | 4.29 | 7.86 |
| C[N+]1(C)C2CC[C@H]1CC(OC(=O)C(O)c1ccccc1)C2 (stereo not given in full) | 11.4 | 15 |
| Cc1nc2sccn2c(=O)c1CCN1CCC(=C(c2ccc(F)cc2)c2ccc(F)cc2)CC1 | 2.86 | 5.71 |
| OCCN1CCN(CCCN2c3ccccc3Sc3ccc(C(F)(F)F)cc32)CC1 | 2.85 | 0 |
| CC(C)=CCC1=C(O)c2ccccc2C(=O)C1=O | 0 | 2.86 |
| CCn1cc(C(=O)O)c(=O)c2cnc(N3CCCC3)nc21 | 0 | 1.43 |
| CCCCN1CCCCC1C(=O)Nc1c(C)cccc1C (stereo not given) | 2.85 | 5 |
| O=C(Cc1cccs1)NC1C(=O)N2C(C(=O)[O-])=C(C[n+]3ccccc3)CSC12 (stereo not given) | 1.43 | 0.725 |
| CC1(C)S[C@@H]2[C@H](NC(=O)[C@H](NC(=O)N3CCNC3=O)c3ccccc3)C(=O)N2C1C(=O)O (stereo not given in full) | 1.43 | 7.86 |
| CCN(CC)CC(=O)Nc1c(C)cccc1C | 5.71 | 7.86 |
| CCN(CCCCOC(=O)c1ccc(OC)c(OC)c1)C(C)Cc1ccc(OC)cc1 (stereo not given) | 4.29 | 4.29 |
| O=C(Nc1ccc([N+](=O)[O-])cc1Cl)c1cc(Cl)ccc1O | 4.29 | 3.57 |
| CCC(=O)O[C@H]1[C@H](O[C@@H]2[C@@H](C)[C@H](O[C@H]3C[C@@](C)(OC)[C@@H](O)[C@H](C)O3)[C@@H](C)C(=O)O[C@H](CC)[C@@](C)(O)[C@H](O)[C@@H](C)C(=O)[C@H](C)C[C@@]2(C)O)O[C@H](C)C[C@@H]1N(C)C | 1.43 | 2.15 |

4 entries out of the list, arranged by SMILES length, rising:

| Structure (SMILES) | suppression of toxicity [1] | suppression of toxicity (PubChem AID 1597) |
| --- | --- | --- |
| CCN(CC)CC(=O)Nc1c(C)cccc1C | 5.71 | 7.86 |
| CCn1cc(C(=O)O)c(=O)c2cnc(N3CCCC3)nc21 | 0 | 1.43 |
| O=C(Nc1ccc([N+](=O)[O-])cc1Cl)c1cc(Cl)ccc1O | 4.29 | 3.57 |
| Nc1ccn(C2O[C@H](CO)[C@@H](O)[C@@H]2O)c(=O)n1 (stereo not given in full) | 1.43 | 6.43 |
